In US20240122985A1, “ANTIBODIES, COMBINATIONS COMPRISING ANTIBODIES, BIOMARKERS, USES & METHODS” (KYMAB LIMITED, priority 2016, published 2024):

Experiment: Expression in stable Lonza pools (shake flask fed batch overgrow)
Conditions: stable pool

B1: 2D10 IgG4PE: fully human anti-human OX40L monoclonal antibody, human IgG4-PE; VH Seq ID No:34, VL Seq ID No:48; 2D10-1 to -4 are stable pools (antibody, V domains shown)
VH: EVQLVESGGGLVQPGGSLRLSCAASGFTFSNYAMNWVRQAPGKGLEWVSTISGSGGATRYADSVKGRFTISRDNSRNTVYLQMNSLRVEDTAVFYCTKDRLIMATVRGPYYYGMDVWGQGTTVTVSS
VL: DIQMTQSPSSLSASVGDRVTITCRASQSISSYLNWYQQKPGKAPNLLIYAASSLQSGVPSRFSGSGSETDFTLTISSLQPEDFATYYCQQSHSVSFTFGPGTKVDIK
modifications: human IgG4-PE constant regions; 02D10 - VH Amino Acid Sequence; 02D10 - VL Amino Acid Sequence
Day 7
  Concentration, Day 7: 261 mg/L
Day 7, listed as 2D10-2
  Concentration, Day 7: 245 mg/L
Day 7, listed as 2D10-3
  Concentration, Day 7: 317 mg/L
Day 7, listed as 2D10-4
  Concentration, Day 7: 372 mg/L
Day 8
  Concentration, Day 8: 492 mg/L
Day 8, listed as 2D10-2
  Concentration, Day 8: 461 mg/L
Day 8, listed as 2D10-3
  Concentration, Day 8: 528 mg/L
Day 8, listed as 2D10-4
  Concentration, Day 8: 677 mg/L
Day 9
  Concentration, Day 9: 681 mg/L
Day 9, listed as 2D10-2
  Concentration, Day 9: 665 mg/L
Day 9, listed as 2D10-3
  Concentration, Day 9: 731 mg/L
Day 9, listed as 2D10-4
  Concentration, Day 9: 785 mg/L
Day 10
  Concentration, Day 10: 993 mg/L
Day 10, listed as 2D10-2
  Concentration, Day 10: 983 mg/L
Day 10, listed as 2D10-3
  Concentration, Day 10: 1163 mg/L
Day 10, listed as 2D10-4
  Concentration, Day 10: 1286 mg/L
Day 11
  Concentration, Day 11: 1157 mg/L
Day 11, listed as 2D10-2
  Concentration, Day 11: 1127 mg/L
Day 11, listed as 2D10-3
  Concentration, Day 11: 1367 mg/L
Day 11, listed as 2D10-4
  Concentration, Day 11: 1350 mg/L
Day 12
  Concentration, Day 12: 1590 mg/L
Day 12, listed as 2D10-2
  Concentration, Day 12: 1485 mg/L
Day 12, listed as 2D10-3
  Concentration, Day 12: 1785 mg/L
Day 12, listed as 2D10-4
  Concentration, Day 12: 1935 mg/L
Day 13
  Concentration, Day 13: 1530 mg/L
Day 13, listed as 2D10-2
  Concentration, Day 13: 2025 mg/L
Day 13, listed as 2D10-3
  Concentration, Day 13: 1905 mg/L
Day 13, listed as 2D10-4
  Concentration, Day 13: 1965 mg/L
Day 14
  Concentration, Day 14: 1575 mg/L
Day 14, listed as 2D10-2
  Concentration, Day 14: 1995 mg/L
Day 14, listed as 2D10-3
  Concentration, Day 14: 1860 mg/L
Day 14, listed as 2D10-4
  Concentration, Day 14: 1800 mg/L
